Results on 1 substance are retold here after paper PMC11063955, “A multiplexed time-resolved fluorescence resonance energy transfer ultrahigh-throughput screening assay for targeting the SMAD4–SMAD3–DNA complex” (Journal of Molecular Cell Biology, 2023).

By UniProt entry, the sequences of proteins in these tests, tags left out. Residues count along the entry.
UniProt Q13485, residues 319-552: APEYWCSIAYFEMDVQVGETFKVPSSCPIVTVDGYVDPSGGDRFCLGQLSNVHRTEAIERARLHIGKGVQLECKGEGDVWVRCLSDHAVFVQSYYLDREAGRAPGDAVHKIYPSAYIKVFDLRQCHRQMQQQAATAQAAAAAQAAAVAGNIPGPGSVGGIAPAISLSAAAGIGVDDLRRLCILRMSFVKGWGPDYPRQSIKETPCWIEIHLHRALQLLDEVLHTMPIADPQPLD
UniProt P84022, residues 219-425: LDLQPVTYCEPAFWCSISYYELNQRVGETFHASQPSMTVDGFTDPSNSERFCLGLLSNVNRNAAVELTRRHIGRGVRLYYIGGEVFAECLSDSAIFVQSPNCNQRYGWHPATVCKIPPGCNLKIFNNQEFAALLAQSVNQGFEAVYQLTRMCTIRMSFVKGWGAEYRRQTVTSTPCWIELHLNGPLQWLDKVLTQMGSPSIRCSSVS

These are yes or no findings as the source states them, for the method shown. In cells and extracts the contact can be indirect. Some results given as binding are weak or reduced against the parent protein; the word gives no strength.

The assay addresses GST-SMAD4-MH2 (UniProt Q13485). The experiment in a line: pull-down; GST pull-down from lysates of HEK293T cells transfected with both partners; 1% NP-40 lysis buffer; lysates incubated with compounds (GA or GNA, or control) for 16 h at 4°C, then glutathione-conjugated beads 2 h at 4°C; western blot with anti-FLAG-HRP and anti-GST-HRP; no DNA oligonucleotides. (A western blot detects proteins with antibodies after separation by electrophoresis.)

For “Venus-flag-SMAD3-MH2 (from UniProt P84022 219-425) (domain or fragment)”, the binding result was “binds”.
